# Source: article PMC9958909, “Insight into the Structural Basis for Dual Nucleic Acid—Recognition by the Scaffold Attachment Factor B2 Protein”
# The chains behind the UniProt entries cited, without tags or fusion partners. Where a name states a change or a piece, a line headed by the entry shows the natural chain unless it says otherwise. A line that says so, or that is headed by a name, gives the form on record, which may keep a tag or linker.
# SAFB2 RRM domain (404-485) (Q14151, form named): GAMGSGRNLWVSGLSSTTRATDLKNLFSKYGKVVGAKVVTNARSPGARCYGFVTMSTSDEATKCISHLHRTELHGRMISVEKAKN
# Results are given in words; binding and its absence hold for the method and conditions named.
# Target: SAFB2 RRM domain (404-485) (human) (UniProt Q14151)
# Assay: NMR 15N relaxation (total correlation time); RRM alone; T1 and T2 at 600 MHz, 298 K; 20 mM BisTris, 150 mM NaCl, 2 mM TCEP, pH 6.5; both purified
substance,measurement,value
SAFB2 RRM domain (404-485) (from UniProt Q14151 404-485) (domain or fragment),binding,no binding
